This is one part of the list.
Legend:
Experiment in all cases: log2 fold change, soluble protein after heating vs DMSO (PISA); higher = thermal stabilisation; K562 lysate, 10 uM; active = over 0.2 and 3.5 SD of the protein, either way, in both replicates (recomputed)
[1] = compound: C1=CC=C(C=C1)[C@H](COC2=CC3=C(C=C2)NC(=O)N3)NC(=O)C4=CC=CN(C4=O)CC5=CC(=C(C=C5)F)F
Outline: (§1)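 A 30 min treatment with 10 μM compound was applied to crude K562 extract at 1 mg/mL protein in PBS pH 7.4 with 1 mM MgCl2. Heating for 3 min spanned 48°C-58°C, after which aliquots were pooled, adjusted to 0.5% NP-40 at 4°C and spun at 21,000xg for 90 min. TMTpro 16plex LC-MS/MS of the supernatant, with channel sums equalised, gave values recorded as log-two fold change in thermal stability against solvent controls, from duplicates.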

By UniProt entry, the sequences of proteins in these tests, tags left out. Where a name states a change or a piece, a line headed by the entry shows the natural chain unless it says otherwise.
UniProt P04181: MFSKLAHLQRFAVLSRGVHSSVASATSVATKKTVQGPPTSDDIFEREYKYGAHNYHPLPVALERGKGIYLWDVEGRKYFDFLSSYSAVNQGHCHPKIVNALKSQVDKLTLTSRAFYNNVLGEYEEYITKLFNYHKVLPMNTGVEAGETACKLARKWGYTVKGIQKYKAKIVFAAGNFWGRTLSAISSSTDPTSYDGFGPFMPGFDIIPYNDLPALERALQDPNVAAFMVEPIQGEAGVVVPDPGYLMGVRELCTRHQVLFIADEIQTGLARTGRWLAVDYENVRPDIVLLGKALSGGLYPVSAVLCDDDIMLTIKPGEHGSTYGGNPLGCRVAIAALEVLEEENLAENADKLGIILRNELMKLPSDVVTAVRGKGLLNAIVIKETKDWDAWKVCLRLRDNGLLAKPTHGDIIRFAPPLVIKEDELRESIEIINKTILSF
UniProt Q9H300: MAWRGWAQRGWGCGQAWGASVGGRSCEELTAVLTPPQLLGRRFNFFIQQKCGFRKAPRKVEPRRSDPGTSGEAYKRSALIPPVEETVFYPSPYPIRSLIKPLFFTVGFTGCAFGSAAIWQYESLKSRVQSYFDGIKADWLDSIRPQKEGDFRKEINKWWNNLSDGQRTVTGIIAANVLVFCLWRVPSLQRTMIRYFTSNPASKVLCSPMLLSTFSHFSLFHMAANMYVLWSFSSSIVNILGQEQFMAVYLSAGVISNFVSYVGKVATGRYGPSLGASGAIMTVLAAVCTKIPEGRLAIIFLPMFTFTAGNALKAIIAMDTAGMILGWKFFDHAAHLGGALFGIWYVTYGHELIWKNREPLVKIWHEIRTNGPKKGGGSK
UniProt Q9BZ23: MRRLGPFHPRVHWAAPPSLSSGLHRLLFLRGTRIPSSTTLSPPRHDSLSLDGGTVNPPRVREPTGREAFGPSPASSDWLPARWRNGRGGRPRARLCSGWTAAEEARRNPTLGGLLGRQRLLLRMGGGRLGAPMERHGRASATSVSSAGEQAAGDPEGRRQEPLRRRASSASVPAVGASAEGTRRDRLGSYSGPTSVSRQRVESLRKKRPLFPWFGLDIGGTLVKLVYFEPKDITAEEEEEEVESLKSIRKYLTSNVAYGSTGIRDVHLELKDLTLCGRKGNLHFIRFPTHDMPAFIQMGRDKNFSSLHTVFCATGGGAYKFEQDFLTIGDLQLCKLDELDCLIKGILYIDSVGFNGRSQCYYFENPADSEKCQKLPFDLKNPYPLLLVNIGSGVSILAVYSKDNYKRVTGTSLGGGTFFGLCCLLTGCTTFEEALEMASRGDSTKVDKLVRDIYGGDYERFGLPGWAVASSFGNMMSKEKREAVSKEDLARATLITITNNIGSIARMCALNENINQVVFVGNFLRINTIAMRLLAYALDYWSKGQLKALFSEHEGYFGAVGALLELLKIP
UniProt Q9UBU9: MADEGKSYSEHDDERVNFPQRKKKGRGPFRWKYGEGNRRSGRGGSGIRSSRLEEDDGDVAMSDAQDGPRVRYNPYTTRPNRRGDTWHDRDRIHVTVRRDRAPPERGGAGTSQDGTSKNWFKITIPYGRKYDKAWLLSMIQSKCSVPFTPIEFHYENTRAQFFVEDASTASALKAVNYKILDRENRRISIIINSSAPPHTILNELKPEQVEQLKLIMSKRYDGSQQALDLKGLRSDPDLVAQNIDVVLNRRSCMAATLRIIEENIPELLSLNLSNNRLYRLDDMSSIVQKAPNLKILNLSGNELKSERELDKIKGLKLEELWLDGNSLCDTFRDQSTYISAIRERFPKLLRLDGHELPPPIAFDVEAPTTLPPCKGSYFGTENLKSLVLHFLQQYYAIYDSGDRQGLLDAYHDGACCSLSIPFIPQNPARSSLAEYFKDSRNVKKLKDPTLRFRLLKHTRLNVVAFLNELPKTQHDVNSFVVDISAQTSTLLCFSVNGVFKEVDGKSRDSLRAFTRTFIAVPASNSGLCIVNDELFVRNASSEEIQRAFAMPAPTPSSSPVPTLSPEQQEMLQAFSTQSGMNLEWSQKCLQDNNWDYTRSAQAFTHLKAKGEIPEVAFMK
UniProt Q9UQ80: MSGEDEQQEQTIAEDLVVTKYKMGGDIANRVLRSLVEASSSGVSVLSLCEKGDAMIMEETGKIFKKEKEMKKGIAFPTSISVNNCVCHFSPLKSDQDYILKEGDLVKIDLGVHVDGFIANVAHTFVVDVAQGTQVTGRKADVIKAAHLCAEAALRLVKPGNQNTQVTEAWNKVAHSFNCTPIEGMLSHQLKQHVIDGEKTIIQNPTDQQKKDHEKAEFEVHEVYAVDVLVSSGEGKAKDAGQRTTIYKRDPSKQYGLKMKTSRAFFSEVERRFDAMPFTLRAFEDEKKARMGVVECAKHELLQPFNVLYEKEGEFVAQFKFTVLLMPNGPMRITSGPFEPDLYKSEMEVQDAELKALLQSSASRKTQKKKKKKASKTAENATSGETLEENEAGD
UniProt O43482, whole entry, looked up: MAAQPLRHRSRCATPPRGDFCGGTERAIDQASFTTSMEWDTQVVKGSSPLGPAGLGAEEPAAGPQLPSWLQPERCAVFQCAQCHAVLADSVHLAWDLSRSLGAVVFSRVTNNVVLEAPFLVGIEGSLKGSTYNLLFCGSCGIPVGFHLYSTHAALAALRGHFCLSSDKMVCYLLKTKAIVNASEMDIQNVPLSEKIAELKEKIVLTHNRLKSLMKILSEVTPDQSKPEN
UniProt Q86WC4: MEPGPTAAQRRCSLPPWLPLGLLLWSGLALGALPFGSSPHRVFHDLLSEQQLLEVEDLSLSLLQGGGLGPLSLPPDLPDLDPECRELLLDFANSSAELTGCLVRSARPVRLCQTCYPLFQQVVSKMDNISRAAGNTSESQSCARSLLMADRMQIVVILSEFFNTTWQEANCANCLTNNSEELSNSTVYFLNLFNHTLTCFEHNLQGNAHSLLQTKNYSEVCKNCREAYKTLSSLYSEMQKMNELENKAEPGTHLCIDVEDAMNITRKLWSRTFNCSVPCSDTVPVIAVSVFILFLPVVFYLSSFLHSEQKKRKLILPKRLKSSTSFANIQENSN
UniProt P43034: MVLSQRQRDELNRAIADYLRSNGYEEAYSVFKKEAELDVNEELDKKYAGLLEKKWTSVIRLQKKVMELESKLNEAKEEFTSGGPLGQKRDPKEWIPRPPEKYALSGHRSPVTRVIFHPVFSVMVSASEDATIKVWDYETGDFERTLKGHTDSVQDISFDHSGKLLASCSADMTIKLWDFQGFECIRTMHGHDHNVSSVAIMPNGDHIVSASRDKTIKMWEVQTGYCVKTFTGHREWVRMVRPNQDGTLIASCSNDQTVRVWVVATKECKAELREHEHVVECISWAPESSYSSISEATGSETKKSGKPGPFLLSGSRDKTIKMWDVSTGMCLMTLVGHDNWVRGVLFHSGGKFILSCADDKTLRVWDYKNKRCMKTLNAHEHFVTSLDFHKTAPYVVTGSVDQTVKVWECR
UniProt Q504Q3: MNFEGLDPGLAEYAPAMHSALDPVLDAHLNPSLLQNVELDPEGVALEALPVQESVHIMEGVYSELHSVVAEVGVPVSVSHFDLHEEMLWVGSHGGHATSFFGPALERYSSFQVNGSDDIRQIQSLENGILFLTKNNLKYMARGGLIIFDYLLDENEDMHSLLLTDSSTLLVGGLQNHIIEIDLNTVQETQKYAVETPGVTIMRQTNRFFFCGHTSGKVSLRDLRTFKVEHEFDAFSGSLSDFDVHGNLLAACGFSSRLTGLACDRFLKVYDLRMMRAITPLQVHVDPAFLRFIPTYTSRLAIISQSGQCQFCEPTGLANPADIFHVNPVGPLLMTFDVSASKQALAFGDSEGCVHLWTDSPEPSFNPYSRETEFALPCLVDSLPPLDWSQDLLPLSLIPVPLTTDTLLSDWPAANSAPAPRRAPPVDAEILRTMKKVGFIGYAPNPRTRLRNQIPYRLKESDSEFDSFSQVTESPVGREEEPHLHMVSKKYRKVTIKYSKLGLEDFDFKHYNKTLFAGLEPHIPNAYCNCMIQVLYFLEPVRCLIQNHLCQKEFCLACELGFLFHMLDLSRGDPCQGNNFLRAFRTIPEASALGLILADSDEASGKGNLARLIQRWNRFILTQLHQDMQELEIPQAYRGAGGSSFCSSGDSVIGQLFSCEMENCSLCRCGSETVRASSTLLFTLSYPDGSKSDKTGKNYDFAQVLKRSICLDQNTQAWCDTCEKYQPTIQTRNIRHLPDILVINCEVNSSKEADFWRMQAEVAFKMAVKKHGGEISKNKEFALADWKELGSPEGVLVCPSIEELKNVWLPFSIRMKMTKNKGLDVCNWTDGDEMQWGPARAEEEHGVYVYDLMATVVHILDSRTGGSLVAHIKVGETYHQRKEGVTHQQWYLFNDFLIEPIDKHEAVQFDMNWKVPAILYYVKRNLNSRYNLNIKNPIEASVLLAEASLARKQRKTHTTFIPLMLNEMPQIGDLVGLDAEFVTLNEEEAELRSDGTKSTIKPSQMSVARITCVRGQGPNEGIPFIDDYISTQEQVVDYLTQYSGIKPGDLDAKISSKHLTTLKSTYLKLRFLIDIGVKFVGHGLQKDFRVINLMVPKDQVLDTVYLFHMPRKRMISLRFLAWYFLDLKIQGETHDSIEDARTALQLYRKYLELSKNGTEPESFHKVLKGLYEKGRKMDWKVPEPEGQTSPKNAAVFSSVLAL
UniProt Q9H8K7: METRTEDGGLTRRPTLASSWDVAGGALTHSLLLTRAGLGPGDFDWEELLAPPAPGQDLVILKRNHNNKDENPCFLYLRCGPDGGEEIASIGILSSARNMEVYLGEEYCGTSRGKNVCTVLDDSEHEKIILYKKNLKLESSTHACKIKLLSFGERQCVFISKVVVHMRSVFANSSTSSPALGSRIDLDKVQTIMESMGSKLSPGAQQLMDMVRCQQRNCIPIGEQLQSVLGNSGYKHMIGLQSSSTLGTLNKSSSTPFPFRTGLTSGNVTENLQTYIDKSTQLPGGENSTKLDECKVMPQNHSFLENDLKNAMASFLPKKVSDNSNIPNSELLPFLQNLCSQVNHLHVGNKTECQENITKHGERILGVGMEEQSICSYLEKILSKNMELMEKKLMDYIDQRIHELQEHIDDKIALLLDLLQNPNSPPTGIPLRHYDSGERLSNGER
UniProt Q9BY11: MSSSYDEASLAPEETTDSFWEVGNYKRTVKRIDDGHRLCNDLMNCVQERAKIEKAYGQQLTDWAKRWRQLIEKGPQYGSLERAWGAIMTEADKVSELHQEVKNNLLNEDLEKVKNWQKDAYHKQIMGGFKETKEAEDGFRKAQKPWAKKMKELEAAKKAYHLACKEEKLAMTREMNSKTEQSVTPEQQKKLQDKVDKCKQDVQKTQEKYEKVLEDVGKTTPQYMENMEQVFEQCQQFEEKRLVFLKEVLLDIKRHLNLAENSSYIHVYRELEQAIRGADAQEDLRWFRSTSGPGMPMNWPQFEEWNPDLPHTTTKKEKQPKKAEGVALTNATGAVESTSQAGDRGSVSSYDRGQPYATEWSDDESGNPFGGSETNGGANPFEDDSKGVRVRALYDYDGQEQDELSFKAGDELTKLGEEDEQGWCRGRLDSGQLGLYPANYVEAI
UniProt P55809: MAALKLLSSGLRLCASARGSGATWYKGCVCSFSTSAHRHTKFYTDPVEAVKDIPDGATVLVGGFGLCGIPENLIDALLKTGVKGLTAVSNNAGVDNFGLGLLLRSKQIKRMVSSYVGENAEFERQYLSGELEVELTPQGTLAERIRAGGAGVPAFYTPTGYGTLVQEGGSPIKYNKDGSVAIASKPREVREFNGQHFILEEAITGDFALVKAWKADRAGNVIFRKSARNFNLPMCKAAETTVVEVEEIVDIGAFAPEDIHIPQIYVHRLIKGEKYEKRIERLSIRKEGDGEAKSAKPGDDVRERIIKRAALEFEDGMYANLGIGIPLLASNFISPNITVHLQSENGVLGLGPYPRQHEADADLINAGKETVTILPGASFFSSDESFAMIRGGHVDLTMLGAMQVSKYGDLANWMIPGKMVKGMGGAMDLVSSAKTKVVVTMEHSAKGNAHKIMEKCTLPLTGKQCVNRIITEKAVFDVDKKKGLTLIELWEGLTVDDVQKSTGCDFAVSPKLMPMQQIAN
UniProt Q9UKX7: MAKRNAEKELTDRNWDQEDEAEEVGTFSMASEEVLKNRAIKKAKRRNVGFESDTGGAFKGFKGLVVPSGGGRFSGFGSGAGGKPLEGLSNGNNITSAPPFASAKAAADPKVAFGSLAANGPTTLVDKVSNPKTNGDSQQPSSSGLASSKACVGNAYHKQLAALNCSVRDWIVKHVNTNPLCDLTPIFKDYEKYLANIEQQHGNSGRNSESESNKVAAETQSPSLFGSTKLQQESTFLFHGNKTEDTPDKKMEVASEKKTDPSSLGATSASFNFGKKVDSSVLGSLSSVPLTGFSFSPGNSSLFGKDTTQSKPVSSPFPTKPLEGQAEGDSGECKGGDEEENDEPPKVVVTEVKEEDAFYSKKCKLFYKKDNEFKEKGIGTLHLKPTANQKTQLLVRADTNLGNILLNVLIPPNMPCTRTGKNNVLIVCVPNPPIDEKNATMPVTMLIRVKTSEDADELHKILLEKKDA
UniProt O75459: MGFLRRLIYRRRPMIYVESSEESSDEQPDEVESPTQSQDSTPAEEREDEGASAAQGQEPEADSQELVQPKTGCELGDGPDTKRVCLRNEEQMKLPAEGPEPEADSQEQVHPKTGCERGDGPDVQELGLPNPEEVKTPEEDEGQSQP

[2] = compound: CC1=C(SC2=C1C(=N[C@H](C3=NN=C(N32)C)CC(=O)N)C4=CC=C(C=C4)Cl)C
Outline: as §1

[3] = compound: CC1=C2C(=CC=C1)N=C(N(C2=O)C3=CC=CC=C3C)CN4C=NC5=C(N=CN=C54)N
Outline: as §1

[4] = compound: Cc1sc2c(c1C)C(c1ccc(Cl)cc1)=N[C@@H](CC(=O)OC(C)(C)C)c1nnc(C)n1-2
Outline: as §1

[5] = compound: c1ccc([C@@H]2C[C@H]2NC2CCNCC2)cc1
Outline: as §1

Measured: log2 fold change

OAT (UniProt P04181)
inactive: [1] 0.029 | [2] 0.031 | [3] 0.038 | [4] 0.034 | [5] -0.018

PARL (UniProt Q9H300)
inactive: [1] -0.052 | [2] -0.026 | [3] -0.008 | [4] 0.043 | [5] 0

PANK2 (UniProt Q9BZ23)
inactive: [1] 0.024 | [2] 0.081 | [3] -0.021 | [4] 0.019 | [5] -0.077

P4HA1 (UniProt P13674)
inactive: [1] 0.001 | [2] 0.01 | [3] 0.002 | [4] 0.018 | [5] 0.015

NXF1 (UniProt Q9UBU9)
inactive: [1] 0 | [2] 0.116 | [3] 0.064 | [4] 0.044 | [5] -0.02

PA2G4 (UniProt Q9UQ80)
inactive: [1] -0.004 | [2] 0.006 | [3] -0.007 | [4] 0.027 | [5] 0.049

OIP5 (UniProt O43482)
inactive: [1] 0.047 | [2] -0.036 | [3] 0.025 | [4] -0.048 | [5] -0.089

Retrieved one by one from above (2):
OIP5 (UniProt O43482)
inactive: [1] 0.047 | [2] -0.036 | [3] 0.025 | [4] -0.048 | [5] -0.089

PA2G4 (UniProt Q9UQ80)
inactive: [1] -0.004 | [2] 0.006 | [3] -0.007 | [4] 0.027 | [5] 0.049

Continuation:

OSBPL3 isoform 2 (UniProt Q9H4L5)
inactive: [1] -0.02 | [2] -0.018 | [3] 0.043 | [4] -0.017 | [5] 0.004

OSTM1 (UniProt Q86WC4)
inactive: [1] -0.057 | [2] 0.019 | [3] 0.108 | [4] -0.014 | [5] -0.027

NUP93 (UniProt Q8N1F7)
inactive: [1] -0.054 | [2] -0.017 | [3] -0.006 | [4] 0.007 | [5] 0.031

PAFAH1B1 (UniProt P43034)
inactive: [1] -0.008 | [2] -0.02 | [3] -0.008 | [4] 0.024 | [5] 0.03

PAN2 isoform 2 (UniProt Q504Q3)
inactive: [1] -0.108 | [2] 0.086 | [3] -0.004 | [4] -0.044 | [5] 0.007

PAAT (UniProt Q9H8K7)
inactive: [1] 0.112 | [2] 0.017 | [3] 0.056 | [4] -0.01 | [5] -0.028

PACSIN1 (UniProt Q9BY11)
inactive: [1] -0.013 | [2] -0.069 | [3] 0.021 | [4] -0.012 | [5] -0.047

P4HA2 (UniProt O15460)
inactive: [1] 0.013 | [2] 0.021 | [3] 0.004 | [4] -0.018 | [5] 0.014

OXCT1 (UniProt P55809)
inactive: [1] 0.009 | [2] 0.04 | [3] 0.013 | [4] 0.017 | [5] 0.035

PAK4 (UniProt O96013)
inactive: [1] -0.06 | [2] -0.03 | [3] -0.018 | [4] -0.021 | [5] -0.14

OARD1 (UniProt Q9Y530)
inactive: [1] -0.005 | [2] -0.014 | [3] 0.035 | [4] 0.044 | [5] -0.005

PARG (UniProt Q86W56)
inactive: [1] -0.011 | [2] -0.006 | [3] -0.005 | [4] -0.004 | [5] 0.091

NUP155 (UniProt O75694)
inactive: [1] -0.018 | [2] 0.039 | [3] 0.091 | [4] -0.032 | [5] 0.054

NUP50 (UniProt Q9UKX7)
inactive: [1] 0.034 | [2] -0.019 | [3] 0.022 | [4] -0.043 | [5] -0.064

OFD1 (UniProt O75665)
inactive: [1] -0.085 | [2] 0.13 | [3] 0.106 | [4] 0.089 | [5] 0.016

PAGE1 (UniProt O75459)
inactive: [1] 0.073 | [2] -0.031 | [3] 0 | [4] -0.054 | [5] -0.002

OXSM (UniProt Q9NWU1)
inactive: [1] 0.061 | [2] 0.031 | [3] -0.019 | [4] -0.019 | [5] -0.016

OBSL1 (UniProt O75147)
inactive: [1] -0.042 | [2] 0.058 | [3] 0.03 | [4] 0.055 | [5] -0.006

PALM (UniProt O75781)
inactive: [1] -0.012 | [2] 0.057 | [3] 0.04 | [4] 0 | [5] -0.036

— the supplement of paper PMC10849652
